US20090299036A1, “AGENT FOR PREVENTING ARTERIOSCLEROSIS, AGENT FOR SUPPRESSING VASCULAR INTIMAL THICKENING AND AGENT FOR IMPROVING VASCULAR ENDOTHELIAL FUNCTION” (Calpis Co, Ltd, priority 2006, published 2009)
Part of at least one peptide drawing is inferred or uncertain, most often the ends. Marks after values point to notes of the source that are not given here.

Legend:
[1] = test system: thoracic aorta of Wistar rats; experiment: Endothelium-dependent vasodilator response of aorta ring from L-NAME-treated rats (Magnus apparatus); type: in vivo, rat; settings: for Degree of vasodilation: drinking water for one week: L-NAME 1 g/L, peptide 0.3 g/L, enalapril 0.5 mg/L, 10 μM acetylcholine, ratio to constriction with 1 μM phenylephrine, group average; for degree of vasodilation compared to the group given only L-NAME: given together with L-NAME
Experimental: Wistar rats (7 weeks of age, male) as the test animals were acclimatized for one week. A nitric oxide synthesis inhibitor, NG-nitro-L-arginine methyl ester hydrochloride (L-NAME, manufactured by SIGMA-ALDRICH CORP.) was dissolved in drinking water at the concentration of 1 g/L, and similarly, L-NAME and Val-Pro-Pro synthesized above at 1 g/L and 0.3 g/L, respectively, and L-NAME and Ile-Pro-Pro synthesized above at 1 g/L and 0.3 g/L, respectively. The rats were allowed free access to the prepared drinking water for one week. As a control, only the drinking water without L-NAME dissolved therein was given to a non-treatment group.
Then, the rats were subjected to fatal exsanguination under diethyl ether anesthesia. The thoracic aorta was taken out, cut into 2 mm long, and made into an aorta ring. The ring was set in a Magnus apparatus (product name “micro tissue organ bath MTOB-1Z”, manufactured by LABO SUPPORT CO., LTD.) filled with 5 ml of Tyrode's solution (composition: 158.3 mM of NaCl, 4.0 mM of KCl, 2.0 mM of CaCl2, […] of MaCl2, 0.42 mM of NaH2PO4, 10.0 mM of NaHCO3, and 5.6 mM of glucose; pH 7.4, 37±0.5° C.), and allowed to equilibrate with the resting tension of 2.0 g. The aorta ring was then allowed to constrict with 1 μM of phenylephrine. […] The degree of vasodilation by the response was determined as a ratio to the constriction with 1 μM of phenylephrine. In the Table, each value is an average of each group of 8 animals.
In the Table, each value is an average of each group of 9 animals.

ApoE knockout mice = experiment: Confirmatory test for effect of inhibiting vascular intimal thickening, Elastica-van Gieson stain, intima/media area ratio; type: in vivo, mouse; settings: Example 2-2, feed for 31 weeks

Compound | Degree of vasodilation [1] | degree of vasodilation compared to the group given only L-NAME [1] | vascular intimal thickening (in words, Table 6) (ApoE knockout mice)
CC[C@H](C)[C@H](N)C(=O)N1CCC[C@H]1C(=O)N1CCC[C@H]1C(=O)O [Ile-Pro-Pro] | 36.8* % | significantly higher | inhibited vascular intimal thickening concentration-dependently
CC(C)[C@H](N)C(=O)N1CCC[C@H]1C(=O)N1CCC[C@H]1C(=O)O [Val-Pro-Pro] | 43.1* % | significantly higher | inhibited vascular intimal thickening concentration-dependently
